From publication PMC7819943, “Rice protein-binding microarrays: a tool to detect cis-acting elements near promoter regions in rice”
Some of the results follow.

Target: T1, OsSMF1 (Oryza sativa, UniProt Q6ZLB0 1-436)
T1 sequence: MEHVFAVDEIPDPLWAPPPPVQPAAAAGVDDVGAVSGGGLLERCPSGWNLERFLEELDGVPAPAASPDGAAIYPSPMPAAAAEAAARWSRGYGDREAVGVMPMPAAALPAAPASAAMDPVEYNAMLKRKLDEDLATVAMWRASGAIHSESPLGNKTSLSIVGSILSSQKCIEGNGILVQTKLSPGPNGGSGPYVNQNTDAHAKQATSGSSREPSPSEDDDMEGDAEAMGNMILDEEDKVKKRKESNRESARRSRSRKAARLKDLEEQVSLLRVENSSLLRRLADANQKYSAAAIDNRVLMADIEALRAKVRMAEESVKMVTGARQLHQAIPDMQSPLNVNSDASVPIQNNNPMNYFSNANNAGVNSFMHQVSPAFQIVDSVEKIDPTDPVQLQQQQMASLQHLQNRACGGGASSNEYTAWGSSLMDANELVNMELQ
Assay: protein-binding microarray (RPBM); PBS, 2% BSA, 51.3 ng/ul salmon testes DNA, 50 uM zinc acetate, 200 nM TF, 25 C, 1 h; high values mean tight binding
Conditions: protein: recombinant; tags: N-terminal polyhistidine and DsRed monomer fusion (pET32a); chain copies: 2; label: CyDye5-dUTP incorporated in the synthesized complementary strand; 3' TTTTT single-stranded linker to array surface; dsDNA, one strand shown
Outline: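 For the binding signal, per-feature fluorescence intensity was read in arbitrary units on an Axon 4000B scanner. Before scanning, a 2% BSA-blocked custom Agilent array made double-stranded with Cy5-dUTP was washed after 1 h at 25 °C with 200 nM protein and 50 µM zinc acetate. The proteins were Ni–NTA-purified transcription factors with N-terminal polyhistidine and DsRed fusions, expressed in E. coli BL21-CodonPlus.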

Row | Sequence | binding signal
1 | TTCGTGGTTTCGTTCAGCTTGATTTCGCTTGACACATCGACGGAGTCACCTAGTGCAG | 4040 fluorescence intensity (a.u.)
2 | TTTGTACCAGCTGCCTTCTTTCCACCAGTCGACGACGACACGGAGTCACCTAGTGCAG | 3560 fluorescence intensity (a.u.)
3 | TAGGCTAGCTGTAGCCACAAGCTTCTTACACCTCACGTTTCGGAGTCACCTAGTGCAG | 4240 fluorescence intensity (a.u.)
4 | ATAACAACCCGGCCCCGCCGCCACTCCATCCCCGACTCACCGGAGTCACCTAGTGCAG | 3700 fluorescence intensity (a.u.)
5 | GAAGATGGCTACCGTATTGTCATCAATGATGGCCCCAGTGCGGAGTCACCTAGTGCAG | 3640 fluorescence intensity (a.u.)
6 | GAGACAAAACATCGTTGTTATACATAACAACGGCTTAACGCGGAGTCACCTAGTGCAG | 37000 fluorescence intensity (a.u.)
7 | ATAAATCACGTGTCTCTTCTCTTGGTTTGCACATTCTTGCCGGAGTCACCTAGTGCAG | 3670 fluorescence intensity (a.u.)
8 | AGAAAATTCTGAAAATGAGGAACCTTTCATTATTTATGTCCGGAGTCACCTAGTGCAG | 6420 fluorescence intensity (a.u.)
9 | GTATATCCATAAGCGAAATGACGGGGCTATTAGAGTGGCACGGAGTCACCTAGTGCAG | 3440 fluorescence intensity (a.u.)
10 | AGAAGAGTGGCGTTGGGGACGTGGACGGCGAGAGCAGGTGCGGAGTCACCTAGTGCAG | 5850 fluorescence intensity (a.u.)
11 | TTGCTGCCACAGCTAAAACAGTCCAGCTACCATACATGAGCGGAGTCACCTAGTGCAG | 25200 fluorescence intensity (a.u.)
12 | CGGTGCCGAGCTTGGCCGCCAGCTCGTCGGCGCCGAGGTCCGGAGTCACCTAGTGCAG | 3410 fluorescence intensity (a.u.)
13 | CTCTGGGGCTCTGGGCAGGGCAACCAGCGGGTGGGGAGGACGGAGTCACCTAGTGCAG | 3540 fluorescence intensity (a.u.)
14 | GCGCCGAGGCCACGATGACGCCGCCGCCCGCTTGTCCGGGCGGAGTCACCTAGTGCAG | 3180 fluorescence intensity (a.u.)
15 | AGAGTGTTTAGATCCAAGAGTGTAAAGTTTTGACGTGTCACGGAGTCACCTAGTGCAG | 7670 fluorescence intensity (a.u.)
16 | CCAAGCCGCGCCACCACCGGCAACGCCACCTCTTGAGTCGCGGAGTCACCTAGTGCAG | 3310 fluorescence intensity (a.u.)
17 | TAACTATTTAGACGATGAAGGGCCTGTTCATTTTGATGTCCGGAGTCACCTAGTGCAG | 4400 fluorescence intensity (a.u.)
18 | TCTCAAACTTTATTAACACAATATCTCCAGCCTTTTCTAGCGGAGTCACCTAGTGCAG | 37800 fluorescence intensity (a.u.)
19 | TGCACCTGTGGCCGCATCACAATCATCATTGACACAACCGCGGAGTCACCTAGTGCAG | 5220 fluorescence intensity (a.u.)
20 | CCGCGCTACCGCTGCCGGATGACGTCATGCAGGAGCAGGACGGAGTCACCTAGTGCAG | 10900 fluorescence intensity (a.u.)
21 | GCCCGCCGCCTCGGCGTGCGTGGCCCAGCCCAACTAAAACCGGAGTCACCTAGTGCAG | 3150 fluorescence intensity (a.u.)
22 | TCCCCTAGGAAGAGGCACACGCACCGGTTGGTCATCATCCCGGAGTCACCTAGTGCAG | 3520 fluorescence intensity (a.u.)
23 | TGACATGCAAGTTGATGTGATGCCAGCTTGCTACTATGCGCGGAGTCACCTAGTGCAG | 4460 fluorescence intensity (a.u.)
24 | GGCACGTATCGGTCTCGTCACGCTCGAGCCCGAATCCGCACGGAGTCACCTAGTGCAG | 3160 fluorescence intensity (a.u.)
25 | GACTCCTTAGGCGGTTTCGTCCTACGTGGCACTTATGTGGCGGAGTCACCTAGTGCAG | 17800 fluorescence intensity (a.u.)
26 | TGCACAGCACGGCAATACACGTCTTTATCCTCTCAACGTACGGAGTCACCTAGTGCAG | 4710 fluorescence intensity (a.u.)
27 | AGATCTAAACTGCTTACTTGCCCACAAATGCCGTTGTTGTCGGAGTCACCTAGTGCAG | 27400 fluorescence intensity (a.u.)

Row | Sequence | binding signal
28 | AAGGCTAATGTGGATGACAAGGCAGTGTCTGAAAATACCACGGAGTCACCTAGTGCAG | 5390 fluorescence intensity (a.u.)
29 | GGATACGAAATGGACGGCCCGAACGAGACCCAGGATATAACGGAGTCACCTAGTGCAG | 33600 fluorescence intensity (a.u.)
30 | TTCTTCCCGCTCACCACGTCAGCGCCACGTGAGCAAAACCCGGAGTCACCTAGTGCAG | 32500 fluorescence intensity (a.u.)
31 | GGCCACGTCACGCAAAACCCGCAGAATTACGCGATTCGCTCGGAGTCACCTAGTGCAG | 9520 fluorescence intensity (a.u.)
32 | CCATCTGCCTGTGAATCAGATTTGTCATGTTCGTAACCATCGGAGTCACCTAGTGCAG | 4400 fluorescence intensity (a.u.)
33 | TTTAATGATCCATGCATGTGTCTAAATATTTGATGCGATGCGGAGTCACCTAGTGCAG | 3230 fluorescence intensity (a.u.)
34 | AATCCAGAGATGATGTGTCCTACAGCTCACTGATCATATCCGGAGTCACCTAGTGCAG | 7310 fluorescence intensity (a.u.)
35 | AATTTTATATATGGGGACTATAATCTCCCTTCTAATCCCCCGGAGTCACCTAGTGCAG | 3230 fluorescence intensity (a.u.)
36 | TAATTCATCCATGTCCATGTCATATTTGTTTACTCGTGGACGGAGTCACCTAGTGCAG | 5440 fluorescence intensity (a.u.)
37 | CTTGTTTCACCTGTCATACACACGTTACGTCTTAGAGTCCCGGAGTCACCTAGTGCAG | 5140 fluorescence intensity (a.u.)
38 | GCTTGTGGCCTGCGTAGTGCTAGAAATATAGTAATCCCTCCGGAGTCACCTAGTGCAG | 3440 fluorescence intensity (a.u.)
39 | GTAGGGAGTTGTTGTATTGTGAGCCAAAAGGTGTGTATTGCGGAGTCACCTAGTGCAG | 3350 fluorescence intensity (a.u.)
40 | AGAAGACAACAGTGAGGAACTGAGGACACGTGTACTTGGACGGAGTCACCTAGTGCAG | 12600 fluorescence intensity (a.u.)
41 | AATAAATTGCCCGCACATGTGTGCGGGCTTTCTTCCTAATCGGAGTCACCTAGTGCAG | 4260 fluorescence intensity (a.u.)
42 | GTAGATACCCGTCAGCCTCTGCATCGGCGTCCATGTCCATCGGAGTCACCTAGTGCAG | 3700 fluorescence intensity (a.u.)
43 | AGGATTCCGGGTCGTGTTTGACGTGGAGAAGGAACGGATCCGGAGTCACCTAGTGCAG | 6370 fluorescence intensity (a.u.)
44 | GATACTGCAGGCGCTGGTGAGCGTGGACATGGCGGTGCTGCGGAGTCACCTAGTGCAG | 5130 fluorescence intensity (a.u.)
45 | AAGTAACAATAATGATATAGTGTTTTGCAAACAGAGTACACGGAGTCACCTAGTGCAG | 3390 fluorescence intensity (a.u.)
46 | AACTTCAATTTCAAATAACAGGGTCAAATAAACAAACCTACGGAGTCACCTAGTGCAG | 4590 fluorescence intensity (a.u.)
47 | CATTGCTGAACATATAAATTCCACGTTGCTGAATAAGCACCGGAGTCACCTAGTGCAG | 4240 fluorescence intensity (a.u.)
48 | GTCTAAGTAGTAGAGTGCTACAAATTCCAGTTCCCTCCCGCGGAGTCACCTAGTGCAG | 5430 fluorescence intensity (a.u.)
49 | GTCTTCCTCTGGCCCATGCTGCAGAACCACGTCCCCGCCGCGGAGTCACCTAGTGCAG | 4010 fluorescence intensity (a.u.)
50 | AGTTGTTTCTTTCCTAAATTATTAGAGCCTGGATTATTGGCGGAGTCACCTAGTGCAG | 3990 fluorescence intensity (a.u.)
51 | CTCCTCAACAACACTCTCAGGTCAATCTCGGCCGACCCAACGGAGTCACCTAGTGCAG | 21200 fluorescence intensity (a.u.)
52 | TTATCTTCGCAGGATAGATAACCCGCTGACTCGGATTATACGGAGTCACCTAGTGCAG | 8500 fluorescence intensity (a.u.)
53 | CCACCACGCGTCAGTTTAGCATGCTACACGTATGCCCTTCCGGAGTCACCTAGTGCAG | 7620 fluorescence intensity (a.u.)
54 | TGAAACCCACGCCACCTCATCTCTTCCCTCTTATTTCCCCCGGAGTCACCTAGTGCAG | 9020 fluorescence intensity (a.u.)

Rewritten with each value named: entries from further up
GTAGGGAGTTGTTGTATTGTGAGCCAAAAGGTGTGTATTGCGGAGTCACCTAGTGCAG
  binding signal: 3350 fluorescence intensity (a.u.)
AAGTAACAATAATGATATAGTGTTTTGCAAACAGAGTACACGGAGTCACCTAGTGCAG
  binding signal: 3390 fluorescence intensity (a.u.)
